{"source": "patent US20240285816A1", "about": "“FORMULATIONS FOR RADIOTHERAPY AND DIAGNOSTIC IMAGING” (priority 2016, published 2024)", "tested_on": "parental A427 cells", "experiment": "Normalized uptake in parental cell line", "type": "cell-based", "details": "over 2 hours", "note": "At least one peptide structure holds a part that was inferred or is arguable (an end, a ring closure or a residue).", "data": [{"molecule": "CC(O)[C@H](NC(=O)[C@@H]1CSSC[C@H](NC(=O)[C@@H](Cc2ccccc2)NC(=O)CCCC(=O)NC23CNCCNCC(C)(CNCCNC2)CNCCNC3)C(=O)N[C@@H](Cc2ccc(O)cc2)C(=O)N[C@H](Cc2c[nH]c3ccccc23)C(=O)N[C@@H](CCCCN)C(=O)N[C@@H](C(C)O)C(=O)N1)C(=O)O", "note": "(stereo partly shown) [^64Cu-SARTATE, metal not drawn]", "values": [{"measurement": "normalized uptake compared with SSTR2 expressing A427-7 cells", "result": "notably less"}]}]}
